Assay [1] addresses EGFR (epidermal growth factor receptor) (UniProt P00533). Put plainly: co-immunoprecipitation (IP with anti-EGFR antibody, immunoblot with anti-HA antibody). A general note: Immunoblotting shows a protein as a band on a membrane.
Assay [2] has the same target. Put plainly: co-immunoprecipitation from 293 cells (DSP cross-linking, IP with anti-EGFR antibody, immunoblot with anti-HA antibody), with or without 10 ng/ml EGF.

By UniProt entry, the sequences of proteins in these tests, tags left out. Where a name states a change or a piece, a line headed by the entry shows the natural chain unless it says otherwise.
UniProt Q6UXK5: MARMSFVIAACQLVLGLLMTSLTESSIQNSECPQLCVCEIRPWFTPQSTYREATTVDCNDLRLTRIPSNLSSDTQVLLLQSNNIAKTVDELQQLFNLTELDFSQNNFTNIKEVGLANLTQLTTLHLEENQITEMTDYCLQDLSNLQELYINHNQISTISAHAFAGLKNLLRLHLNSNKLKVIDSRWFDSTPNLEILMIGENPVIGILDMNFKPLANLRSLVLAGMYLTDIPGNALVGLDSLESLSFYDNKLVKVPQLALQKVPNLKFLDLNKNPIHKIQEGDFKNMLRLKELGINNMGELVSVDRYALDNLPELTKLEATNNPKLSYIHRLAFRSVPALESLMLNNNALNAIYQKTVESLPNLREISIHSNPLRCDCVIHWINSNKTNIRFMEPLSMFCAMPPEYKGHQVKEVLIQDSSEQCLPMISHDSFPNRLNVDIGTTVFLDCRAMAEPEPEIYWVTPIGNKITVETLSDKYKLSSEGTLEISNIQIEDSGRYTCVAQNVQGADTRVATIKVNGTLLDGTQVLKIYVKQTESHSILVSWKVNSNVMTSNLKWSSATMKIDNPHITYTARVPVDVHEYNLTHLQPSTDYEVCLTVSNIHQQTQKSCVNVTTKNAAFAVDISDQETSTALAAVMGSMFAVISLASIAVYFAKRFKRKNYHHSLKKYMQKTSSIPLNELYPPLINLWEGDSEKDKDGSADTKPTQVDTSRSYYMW

These are yes or no findings as the source states them, for the method shown. Binding seen in cells or lysates may run through a third protein. Some binding calls cover weakened binding; strength is not graded here.

As for “NLRR1 tagged with a HA tag (from UniProt Q6UXK5 26-716) (receptor)”, the binding result in assay [1] and in assay [2] was “binds” in each case.

For the origin of these results see US20110124006A1, “METHOD FOR SCREENING OF THERAPEUTIC AGENT FOR CANCER” (Hismitsu Pharmaceutical Co., Inc., priority 2008, published 2011).
